Assay results taken from PMC4849774.
Results are given in words; binding and its absence hold for the method and conditions named. In cells and extracts the contact can be indirect. Some entries that bind do so weakly or less than the wild type. For some assays here: Sequences can lack the tags named with a protein.

Sequences of proteins named here, by UniProt entry; tags and fusion partners are left off.
UniProt Q9NXV2: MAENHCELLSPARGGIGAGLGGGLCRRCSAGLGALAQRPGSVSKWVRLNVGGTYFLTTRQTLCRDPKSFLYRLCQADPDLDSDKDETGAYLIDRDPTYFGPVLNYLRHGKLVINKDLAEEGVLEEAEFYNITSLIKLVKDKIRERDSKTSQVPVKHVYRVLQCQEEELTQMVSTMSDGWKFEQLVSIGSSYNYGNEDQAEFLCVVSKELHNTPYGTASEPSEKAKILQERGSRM
UniProt Q13148: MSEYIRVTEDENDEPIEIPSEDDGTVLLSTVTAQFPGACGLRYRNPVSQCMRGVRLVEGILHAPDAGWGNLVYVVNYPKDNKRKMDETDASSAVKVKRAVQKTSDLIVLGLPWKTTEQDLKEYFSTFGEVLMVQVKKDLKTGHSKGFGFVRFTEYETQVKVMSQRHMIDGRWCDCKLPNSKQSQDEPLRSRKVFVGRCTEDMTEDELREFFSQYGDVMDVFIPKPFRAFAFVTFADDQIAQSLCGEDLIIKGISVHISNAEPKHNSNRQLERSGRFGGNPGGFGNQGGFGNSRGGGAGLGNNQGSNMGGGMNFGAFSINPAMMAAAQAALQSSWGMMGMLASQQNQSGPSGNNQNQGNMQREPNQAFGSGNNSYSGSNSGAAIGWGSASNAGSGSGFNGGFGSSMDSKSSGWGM
UniProt Q13263: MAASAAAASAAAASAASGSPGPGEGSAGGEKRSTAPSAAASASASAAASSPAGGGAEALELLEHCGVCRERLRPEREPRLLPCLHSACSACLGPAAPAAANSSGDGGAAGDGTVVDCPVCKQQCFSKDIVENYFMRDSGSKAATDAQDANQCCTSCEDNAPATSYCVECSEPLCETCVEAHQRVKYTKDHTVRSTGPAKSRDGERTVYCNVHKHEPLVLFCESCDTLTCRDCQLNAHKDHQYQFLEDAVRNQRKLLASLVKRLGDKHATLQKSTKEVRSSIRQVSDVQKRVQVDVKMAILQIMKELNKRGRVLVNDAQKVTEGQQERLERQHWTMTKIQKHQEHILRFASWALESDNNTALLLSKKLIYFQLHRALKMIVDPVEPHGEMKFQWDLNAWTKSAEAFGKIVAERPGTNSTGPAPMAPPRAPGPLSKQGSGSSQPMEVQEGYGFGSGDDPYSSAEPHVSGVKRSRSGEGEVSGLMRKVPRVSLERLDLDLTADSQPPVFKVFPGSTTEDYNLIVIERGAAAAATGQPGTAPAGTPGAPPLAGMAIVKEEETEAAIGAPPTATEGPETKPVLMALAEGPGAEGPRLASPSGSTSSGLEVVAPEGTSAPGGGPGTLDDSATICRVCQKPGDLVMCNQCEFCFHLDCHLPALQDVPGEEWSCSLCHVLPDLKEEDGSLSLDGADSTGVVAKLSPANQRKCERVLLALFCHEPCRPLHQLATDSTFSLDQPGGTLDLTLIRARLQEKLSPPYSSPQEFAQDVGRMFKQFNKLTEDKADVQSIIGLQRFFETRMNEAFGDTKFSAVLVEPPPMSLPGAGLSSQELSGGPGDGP
UniProt Q16531: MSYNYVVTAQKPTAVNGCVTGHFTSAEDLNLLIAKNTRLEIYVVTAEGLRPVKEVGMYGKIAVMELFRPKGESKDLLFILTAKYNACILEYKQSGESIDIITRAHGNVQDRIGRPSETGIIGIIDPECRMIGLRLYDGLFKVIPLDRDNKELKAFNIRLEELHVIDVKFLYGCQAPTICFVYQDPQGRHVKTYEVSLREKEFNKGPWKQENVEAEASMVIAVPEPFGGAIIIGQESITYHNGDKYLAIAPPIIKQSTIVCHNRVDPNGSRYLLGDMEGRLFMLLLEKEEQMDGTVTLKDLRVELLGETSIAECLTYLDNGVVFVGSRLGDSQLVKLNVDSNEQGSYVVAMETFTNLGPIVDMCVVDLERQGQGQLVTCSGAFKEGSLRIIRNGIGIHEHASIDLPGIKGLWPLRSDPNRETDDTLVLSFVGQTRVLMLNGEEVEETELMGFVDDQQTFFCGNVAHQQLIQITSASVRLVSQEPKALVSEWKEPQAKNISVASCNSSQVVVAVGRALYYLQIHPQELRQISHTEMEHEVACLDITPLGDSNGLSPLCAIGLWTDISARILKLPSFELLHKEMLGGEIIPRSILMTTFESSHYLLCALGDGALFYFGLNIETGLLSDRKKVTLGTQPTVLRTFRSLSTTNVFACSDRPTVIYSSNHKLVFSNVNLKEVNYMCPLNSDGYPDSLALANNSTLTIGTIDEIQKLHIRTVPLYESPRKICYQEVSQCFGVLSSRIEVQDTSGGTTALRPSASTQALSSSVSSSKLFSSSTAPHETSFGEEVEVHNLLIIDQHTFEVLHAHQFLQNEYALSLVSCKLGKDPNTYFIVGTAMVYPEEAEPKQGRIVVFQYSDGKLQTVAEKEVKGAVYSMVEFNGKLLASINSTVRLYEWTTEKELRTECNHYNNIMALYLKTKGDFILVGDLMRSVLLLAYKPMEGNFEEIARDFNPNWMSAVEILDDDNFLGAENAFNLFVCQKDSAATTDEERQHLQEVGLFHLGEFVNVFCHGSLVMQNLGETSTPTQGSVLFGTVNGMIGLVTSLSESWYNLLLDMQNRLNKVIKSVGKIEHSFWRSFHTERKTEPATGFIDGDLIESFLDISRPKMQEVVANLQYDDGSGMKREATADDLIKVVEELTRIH

What was measured:
[1] = biological target: T1, Myc-CRY1 (mouse) (UniProt P97784); experiment: co-IP; HEK293T/17 cells, 10 uM MG132 for 6 hours, lysed with IP Buffer, immunoprecipitation with anti-Myc or anti-FLAG antibody; normal mouse IgG as negative control
T1 sequence: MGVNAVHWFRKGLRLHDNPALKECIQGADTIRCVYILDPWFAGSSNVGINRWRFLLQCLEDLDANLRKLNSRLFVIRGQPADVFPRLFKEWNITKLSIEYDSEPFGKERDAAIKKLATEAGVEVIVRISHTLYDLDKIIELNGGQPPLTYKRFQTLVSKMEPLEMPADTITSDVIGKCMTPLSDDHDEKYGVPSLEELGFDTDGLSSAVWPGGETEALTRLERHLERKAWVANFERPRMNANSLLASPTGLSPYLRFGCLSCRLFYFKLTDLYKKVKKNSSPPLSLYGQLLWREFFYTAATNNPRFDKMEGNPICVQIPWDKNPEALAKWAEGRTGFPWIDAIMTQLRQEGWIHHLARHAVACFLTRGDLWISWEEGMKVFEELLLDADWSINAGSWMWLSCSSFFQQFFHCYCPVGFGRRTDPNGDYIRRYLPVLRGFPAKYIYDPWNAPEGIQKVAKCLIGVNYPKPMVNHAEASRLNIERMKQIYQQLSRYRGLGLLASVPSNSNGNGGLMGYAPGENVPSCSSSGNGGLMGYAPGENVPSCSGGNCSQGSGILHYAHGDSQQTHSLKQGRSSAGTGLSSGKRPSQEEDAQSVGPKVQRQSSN

[2] = biological target: T2, FLAG-CRY2 (in HEK293 cells) (mouse) (UniProt Q9R194); experiment: co-IP; HEK293 cells expressing FLAG-CRY2, or Myc-CRY2 and/or FLAG-TDP-43, lysed with IP Buffer, immunoprecipitation with anti-FLAG antibody, western blotting
T2 sequence: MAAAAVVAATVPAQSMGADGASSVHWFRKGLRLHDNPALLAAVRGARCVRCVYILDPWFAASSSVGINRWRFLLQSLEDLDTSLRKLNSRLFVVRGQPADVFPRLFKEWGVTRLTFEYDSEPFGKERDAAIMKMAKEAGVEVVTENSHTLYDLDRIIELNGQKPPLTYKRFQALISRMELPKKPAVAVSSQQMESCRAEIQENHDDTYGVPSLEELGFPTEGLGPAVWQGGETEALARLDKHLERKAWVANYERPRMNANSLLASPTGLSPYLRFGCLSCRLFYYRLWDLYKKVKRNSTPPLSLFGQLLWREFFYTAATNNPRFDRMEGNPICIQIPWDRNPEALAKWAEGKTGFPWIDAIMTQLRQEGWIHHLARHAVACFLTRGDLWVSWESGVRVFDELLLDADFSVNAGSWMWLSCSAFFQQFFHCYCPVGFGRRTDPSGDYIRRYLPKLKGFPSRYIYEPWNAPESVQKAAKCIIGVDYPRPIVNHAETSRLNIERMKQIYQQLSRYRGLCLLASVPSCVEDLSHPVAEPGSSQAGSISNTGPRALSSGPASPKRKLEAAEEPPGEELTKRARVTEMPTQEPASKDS

[3] = biological target: T3, CRY2 (in HEK293T/17 cells, S1 Fig C) (mouse) (UniProt Q9R194); experiment: co-IP; HEK293T/17 cells, 10 uM MG132 for 6 hours, lysed with IP Buffer, immunoprecipitation with anti-Myc or anti-FLAG antibody; normal mouse IgG as negative control
T3 sequence: T2 sequence

binding [1]	binding [2]	binding [3]	Substance
binds			KCTD5 (from UniProt Q9NXV2 1-234)
	binds		endogenous TDP-43 (HEK293) (from UniProt Q13148 1-414)
binds			FLAG-TRIM28 (from UniProt Q13263 1-835)
binds		binds	DDB1 (in HEK293T/17 cells) (from UniProt Q16531 1-1140)
